Measurements taken from the supplement of paper PMC7666118.
Some of the results follow.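 The calls were made as follows: active = dose-dependent thermal stabilisation significant by F-test of dose-response against flat model at 10% FDR; inactive = not significant.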

Amino acid sequences for entries named in this document (tags omitted). A change or cut given only in a name is not applied to a line headed by its entry.
UniProt O75340: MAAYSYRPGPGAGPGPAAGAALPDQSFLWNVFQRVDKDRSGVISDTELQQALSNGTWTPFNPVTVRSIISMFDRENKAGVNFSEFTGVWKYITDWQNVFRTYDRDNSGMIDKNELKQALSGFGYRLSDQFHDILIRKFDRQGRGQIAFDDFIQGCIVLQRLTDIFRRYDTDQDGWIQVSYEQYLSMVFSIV
UniProt P78356: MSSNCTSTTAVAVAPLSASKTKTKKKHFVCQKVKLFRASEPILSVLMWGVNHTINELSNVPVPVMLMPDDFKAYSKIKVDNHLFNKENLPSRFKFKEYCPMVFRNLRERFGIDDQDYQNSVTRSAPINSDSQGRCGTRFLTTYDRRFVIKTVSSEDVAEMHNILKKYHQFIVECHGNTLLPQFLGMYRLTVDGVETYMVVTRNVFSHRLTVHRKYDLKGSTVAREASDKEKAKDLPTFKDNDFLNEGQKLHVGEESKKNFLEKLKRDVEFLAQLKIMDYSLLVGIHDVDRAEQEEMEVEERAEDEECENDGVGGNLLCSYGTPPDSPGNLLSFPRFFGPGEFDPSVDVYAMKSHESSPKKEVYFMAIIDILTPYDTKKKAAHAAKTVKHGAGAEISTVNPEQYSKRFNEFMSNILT
UniProt Q01970, whole entry: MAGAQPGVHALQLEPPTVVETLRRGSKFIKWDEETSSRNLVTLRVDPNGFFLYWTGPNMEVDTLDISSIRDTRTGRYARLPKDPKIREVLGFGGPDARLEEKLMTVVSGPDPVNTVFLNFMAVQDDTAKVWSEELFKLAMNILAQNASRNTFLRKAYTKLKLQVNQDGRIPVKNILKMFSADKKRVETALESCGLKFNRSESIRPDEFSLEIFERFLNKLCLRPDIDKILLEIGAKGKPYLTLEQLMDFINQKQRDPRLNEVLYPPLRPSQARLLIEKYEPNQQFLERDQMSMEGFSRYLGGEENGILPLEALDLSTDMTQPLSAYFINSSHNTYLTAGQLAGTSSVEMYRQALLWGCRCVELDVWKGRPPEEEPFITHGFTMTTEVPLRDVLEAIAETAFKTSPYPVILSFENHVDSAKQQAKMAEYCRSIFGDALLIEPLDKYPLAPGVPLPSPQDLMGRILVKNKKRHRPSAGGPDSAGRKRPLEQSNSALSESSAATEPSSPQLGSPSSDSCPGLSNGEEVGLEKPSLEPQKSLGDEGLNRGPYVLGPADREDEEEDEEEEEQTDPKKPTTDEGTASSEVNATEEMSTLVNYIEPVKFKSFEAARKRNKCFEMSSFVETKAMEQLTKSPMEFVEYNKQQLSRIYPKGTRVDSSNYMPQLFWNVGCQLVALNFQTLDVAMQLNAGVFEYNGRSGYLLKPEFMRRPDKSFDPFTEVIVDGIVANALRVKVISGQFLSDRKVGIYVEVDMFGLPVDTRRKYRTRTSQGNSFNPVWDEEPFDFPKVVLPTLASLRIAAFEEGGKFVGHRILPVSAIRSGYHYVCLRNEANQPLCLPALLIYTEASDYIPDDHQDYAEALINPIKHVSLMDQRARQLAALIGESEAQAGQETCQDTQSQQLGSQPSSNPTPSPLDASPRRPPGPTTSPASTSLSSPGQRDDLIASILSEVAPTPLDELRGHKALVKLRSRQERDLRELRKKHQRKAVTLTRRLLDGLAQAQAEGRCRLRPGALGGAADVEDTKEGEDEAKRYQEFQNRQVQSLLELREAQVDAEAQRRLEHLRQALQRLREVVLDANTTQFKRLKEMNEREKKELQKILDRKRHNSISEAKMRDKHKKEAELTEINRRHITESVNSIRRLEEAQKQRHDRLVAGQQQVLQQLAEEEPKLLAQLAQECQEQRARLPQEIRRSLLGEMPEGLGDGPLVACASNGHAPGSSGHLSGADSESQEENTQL
UniProt P13667: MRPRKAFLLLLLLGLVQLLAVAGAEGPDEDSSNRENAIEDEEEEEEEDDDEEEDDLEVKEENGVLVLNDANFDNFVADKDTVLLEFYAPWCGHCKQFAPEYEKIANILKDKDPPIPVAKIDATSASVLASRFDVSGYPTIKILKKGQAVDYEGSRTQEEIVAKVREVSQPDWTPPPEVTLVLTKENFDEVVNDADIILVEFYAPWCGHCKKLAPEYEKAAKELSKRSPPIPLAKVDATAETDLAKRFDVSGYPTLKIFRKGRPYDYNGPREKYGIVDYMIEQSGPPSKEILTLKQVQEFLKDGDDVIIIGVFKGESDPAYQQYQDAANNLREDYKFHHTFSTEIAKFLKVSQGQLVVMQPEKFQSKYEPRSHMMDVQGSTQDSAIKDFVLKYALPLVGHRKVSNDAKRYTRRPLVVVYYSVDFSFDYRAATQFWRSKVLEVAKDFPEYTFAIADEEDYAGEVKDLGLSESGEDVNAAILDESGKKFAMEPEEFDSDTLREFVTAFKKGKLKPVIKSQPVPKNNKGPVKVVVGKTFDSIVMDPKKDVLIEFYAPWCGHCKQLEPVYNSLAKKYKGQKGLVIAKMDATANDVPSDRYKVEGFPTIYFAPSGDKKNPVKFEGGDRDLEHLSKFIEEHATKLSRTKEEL
UniProt P54277: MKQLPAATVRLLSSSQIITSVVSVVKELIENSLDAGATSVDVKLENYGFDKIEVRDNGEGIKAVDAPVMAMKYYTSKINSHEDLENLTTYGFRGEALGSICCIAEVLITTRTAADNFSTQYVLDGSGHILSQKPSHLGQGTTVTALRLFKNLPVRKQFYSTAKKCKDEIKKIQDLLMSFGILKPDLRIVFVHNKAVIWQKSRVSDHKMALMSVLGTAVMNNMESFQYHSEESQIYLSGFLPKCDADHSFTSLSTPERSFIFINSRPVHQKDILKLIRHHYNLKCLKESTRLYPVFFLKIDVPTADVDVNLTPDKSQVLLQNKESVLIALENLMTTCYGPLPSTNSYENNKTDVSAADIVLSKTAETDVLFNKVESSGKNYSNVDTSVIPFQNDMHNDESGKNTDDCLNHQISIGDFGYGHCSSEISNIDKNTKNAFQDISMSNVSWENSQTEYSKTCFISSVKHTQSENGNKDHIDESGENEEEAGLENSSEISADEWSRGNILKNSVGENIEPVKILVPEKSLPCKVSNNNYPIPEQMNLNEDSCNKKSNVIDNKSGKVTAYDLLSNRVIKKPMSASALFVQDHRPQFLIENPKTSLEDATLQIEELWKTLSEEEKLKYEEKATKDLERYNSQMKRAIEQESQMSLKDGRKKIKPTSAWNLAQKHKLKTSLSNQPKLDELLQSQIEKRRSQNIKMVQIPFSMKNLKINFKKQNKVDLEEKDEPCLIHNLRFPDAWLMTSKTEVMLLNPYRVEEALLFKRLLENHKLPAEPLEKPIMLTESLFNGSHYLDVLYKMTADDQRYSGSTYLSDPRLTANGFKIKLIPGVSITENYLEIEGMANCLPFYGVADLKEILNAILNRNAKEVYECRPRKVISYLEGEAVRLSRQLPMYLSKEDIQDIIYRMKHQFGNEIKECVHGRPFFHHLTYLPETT
UniProt Q15154: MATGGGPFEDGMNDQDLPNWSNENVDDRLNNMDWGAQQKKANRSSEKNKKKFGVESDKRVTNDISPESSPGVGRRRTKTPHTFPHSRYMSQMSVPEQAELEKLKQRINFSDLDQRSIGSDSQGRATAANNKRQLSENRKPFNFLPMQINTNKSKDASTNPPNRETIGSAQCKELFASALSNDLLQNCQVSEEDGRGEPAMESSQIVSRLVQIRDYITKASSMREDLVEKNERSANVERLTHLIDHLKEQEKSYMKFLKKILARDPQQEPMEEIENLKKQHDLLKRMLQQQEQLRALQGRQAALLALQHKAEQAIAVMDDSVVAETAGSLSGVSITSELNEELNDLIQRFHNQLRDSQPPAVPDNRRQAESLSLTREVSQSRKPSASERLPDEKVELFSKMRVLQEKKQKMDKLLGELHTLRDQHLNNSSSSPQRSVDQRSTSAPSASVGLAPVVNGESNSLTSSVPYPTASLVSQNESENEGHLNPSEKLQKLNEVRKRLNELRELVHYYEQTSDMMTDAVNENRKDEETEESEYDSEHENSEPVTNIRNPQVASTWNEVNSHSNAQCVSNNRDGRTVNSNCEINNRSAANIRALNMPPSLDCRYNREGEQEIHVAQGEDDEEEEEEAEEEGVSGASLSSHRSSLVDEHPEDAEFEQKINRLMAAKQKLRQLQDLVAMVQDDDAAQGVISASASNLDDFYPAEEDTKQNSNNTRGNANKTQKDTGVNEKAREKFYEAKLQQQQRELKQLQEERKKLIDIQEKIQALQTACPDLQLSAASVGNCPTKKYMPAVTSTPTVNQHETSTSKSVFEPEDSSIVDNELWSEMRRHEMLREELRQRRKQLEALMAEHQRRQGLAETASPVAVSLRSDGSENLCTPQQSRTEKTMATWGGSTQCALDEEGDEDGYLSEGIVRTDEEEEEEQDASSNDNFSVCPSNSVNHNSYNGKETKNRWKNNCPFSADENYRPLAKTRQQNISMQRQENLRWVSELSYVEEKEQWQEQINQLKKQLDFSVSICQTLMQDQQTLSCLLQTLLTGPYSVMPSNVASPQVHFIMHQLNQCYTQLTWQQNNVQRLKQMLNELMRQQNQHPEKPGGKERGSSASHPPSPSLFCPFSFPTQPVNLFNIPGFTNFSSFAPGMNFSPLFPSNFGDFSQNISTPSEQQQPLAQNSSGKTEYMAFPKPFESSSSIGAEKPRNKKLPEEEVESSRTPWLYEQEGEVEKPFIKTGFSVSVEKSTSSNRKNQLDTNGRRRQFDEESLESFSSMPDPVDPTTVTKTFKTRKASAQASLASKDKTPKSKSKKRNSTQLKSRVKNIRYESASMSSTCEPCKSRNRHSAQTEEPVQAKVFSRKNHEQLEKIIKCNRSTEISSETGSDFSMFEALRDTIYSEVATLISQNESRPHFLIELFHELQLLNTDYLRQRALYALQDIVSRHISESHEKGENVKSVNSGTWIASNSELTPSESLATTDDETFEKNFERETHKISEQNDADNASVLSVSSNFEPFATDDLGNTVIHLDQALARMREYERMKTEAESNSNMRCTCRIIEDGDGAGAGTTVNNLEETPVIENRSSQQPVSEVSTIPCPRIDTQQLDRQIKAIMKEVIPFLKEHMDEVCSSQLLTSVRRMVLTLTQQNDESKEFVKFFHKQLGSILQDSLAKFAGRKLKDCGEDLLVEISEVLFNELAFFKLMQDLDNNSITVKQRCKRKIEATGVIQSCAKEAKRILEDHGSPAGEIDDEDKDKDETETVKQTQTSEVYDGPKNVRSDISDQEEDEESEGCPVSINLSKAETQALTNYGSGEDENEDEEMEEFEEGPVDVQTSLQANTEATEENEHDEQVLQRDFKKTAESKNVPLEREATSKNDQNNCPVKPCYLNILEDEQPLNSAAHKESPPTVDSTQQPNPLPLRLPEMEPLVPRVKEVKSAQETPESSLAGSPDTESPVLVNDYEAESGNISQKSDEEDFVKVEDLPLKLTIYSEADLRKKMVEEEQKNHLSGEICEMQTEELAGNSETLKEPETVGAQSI
UniProt P42338: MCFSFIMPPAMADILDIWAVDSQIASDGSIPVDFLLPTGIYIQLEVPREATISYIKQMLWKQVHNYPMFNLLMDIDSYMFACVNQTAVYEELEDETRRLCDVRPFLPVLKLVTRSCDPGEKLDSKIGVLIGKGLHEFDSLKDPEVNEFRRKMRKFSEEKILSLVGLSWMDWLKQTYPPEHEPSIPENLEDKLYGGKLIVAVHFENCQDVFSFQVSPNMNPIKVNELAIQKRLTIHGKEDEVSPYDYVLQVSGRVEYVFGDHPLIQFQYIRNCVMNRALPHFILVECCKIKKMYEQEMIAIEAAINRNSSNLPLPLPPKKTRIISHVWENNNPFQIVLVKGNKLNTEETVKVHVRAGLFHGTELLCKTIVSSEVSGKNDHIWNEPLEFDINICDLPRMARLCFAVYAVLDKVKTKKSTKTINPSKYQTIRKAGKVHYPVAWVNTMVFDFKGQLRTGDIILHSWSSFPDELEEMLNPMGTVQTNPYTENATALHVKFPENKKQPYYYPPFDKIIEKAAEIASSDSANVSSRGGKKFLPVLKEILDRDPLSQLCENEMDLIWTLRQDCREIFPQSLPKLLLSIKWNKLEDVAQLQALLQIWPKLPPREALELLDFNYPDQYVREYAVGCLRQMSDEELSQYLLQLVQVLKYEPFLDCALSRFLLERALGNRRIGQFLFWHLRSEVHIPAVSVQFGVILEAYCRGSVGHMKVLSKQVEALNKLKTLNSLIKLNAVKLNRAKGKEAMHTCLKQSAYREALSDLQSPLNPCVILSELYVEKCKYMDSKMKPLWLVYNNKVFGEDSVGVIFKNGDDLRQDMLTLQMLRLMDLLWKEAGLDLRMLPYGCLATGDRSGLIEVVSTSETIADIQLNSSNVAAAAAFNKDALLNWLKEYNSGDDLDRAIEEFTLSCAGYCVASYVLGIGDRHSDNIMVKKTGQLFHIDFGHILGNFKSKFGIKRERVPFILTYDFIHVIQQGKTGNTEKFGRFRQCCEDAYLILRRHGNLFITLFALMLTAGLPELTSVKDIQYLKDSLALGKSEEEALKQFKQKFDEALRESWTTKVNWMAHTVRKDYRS

Compound: Nc1nc2c(ncn2[C@@H]2O[C@H](COP(=O)(O)OP(=O)(O)OP(=O)(O)O)[C@@H](O)[C@H]2O)c(=O)[nH]1
Test: dose-dependent thermal stabilisation call (2D-TPP, DLPTP, 10% FDR) (binary (1 = stabilised)); higher = stabilised by the compound
Conditions: system: Jurkat gel-filtered lysate; concentration range 1-500 µM

Target | dose-dependent thermal stabilisation call
PLAA (UniProt Q9Y263) | inactive: 0
PDCD6 (UniProt O75340) | inactive: 0
PIP4K2B (UniProt P78356) | inactive: 0
POLD2 (UniProt P49005) | inactive: 0
PDE12 (UniProt Q6L8Q7) | inactive: 0
PAXBP1 (UniProt Q9Y5B6) | inactive: 0
PLCB3 (UniProt Q01970) | inactive: 0
PEPD (UniProt P12955) | inactive: 0
PHAX (UniProt Q9H814) | inactive: 0
PGP (UniProt A6NDG6) | inactive: 0
PDIA6 (UniProt Q15084) | inactive: 0
PCNT (UniProt O95613) | inactive: 0
PDIA4 (UniProt P13667) | inactive: 0
PIK3CG (UniProt P48736) | inactive: 0
POM121 (UniProt Q96HA1) | inactive: 0
PPIL3 (UniProt Q9H2H8) | active: 1
PPIL4 (UniProt Q8WUA2) | inactive: 0
PMS1 (UniProt P54277) | inactive: 0
PBX2 (UniProt P40425) | inactive: 0
PAXIP1 (UniProt Q6ZW49) | inactive: 0
POP1 (UniProt Q99575) | inactive: 0
PDCD10 (UniProt Q9BUL8) | inactive: 0
POLE3 (UniProt Q9NRF9) | inactive: 0
PCM1 (UniProt Q15154) | inactive: 0
PPP6R2 (UniProt O75170) | inactive: 0
PMVK (UniProt Q15126) | active: 1
PIK3CB (UniProt P42338) | active: 1

2 entries drawn at random from the list so far:
Target | dose-dependent thermal stabilisation call
POLE3 (UniProt Q9NRF9) | inactive: 0
PMVK (UniProt Q15126) | active: 1
